# Reference: the supplement of paper PMC8728848
# This is one part of the list.
# How the values were obtained:
# Assay in all cases: glycan array binding signal (z-score within array); higher = stronger binding
# Conditions in all cases: glycan notation: IUPAC condensed, linker removed
# [1] = target: GalNAc(b1-4)GlcNAc(b1-2)Man
# Outline: (§1)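 Arrays were curated from the Consortium for Functional Glycomics database, 3228 in total, and kept only where the protein sequence was available. Binding is expressed as a within-array Z-score. This score was averaged across arrays of the same protein sequence at different concentrations or buffers and across linkers, and negative values can be read as non-binding.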
# [2] = target: GalNAc(b1-4)GlcNAc(b1-2)Man(a1-3)[GalNAc(b1-4)GlcNAc(b1-2)Man(a1-6)]Man(b1-4)GlcNAc(b1-4)GlcNAc
# Outline: as §1
# [3] = target: GalNAc(b1-4)GlcNAc(b1-3)GalNAc(b1-4)GlcNAc
# Outline: as §1
# [4] = target: GalNAc(b1-4)GlcNAc6S
# Outline: as §1
# [5] = target: GalNAc(b1-6)GalNAc
# Outline: as §1
# [6] = target: GalNAc3S(b1-4)GlcNAc
# Outline: as §1
# [7] = target: GalNAc3S(b1-4)GlcNAc3S
# Outline: as §1
# [8] = target: GalNAc3S(b1-4)[Fuc(a1-3)]GlcNAc
# Outline: as §1
# [9] = target: GalNAc4S6S(b1-4)GlcNAc
# Outline: as §1
# [10] = target: GalNAc6S(b1-4)GlcNAc
# Outline: as §1
# [11] = target: Glc(a1-4)Glc
# Outline: as §1
# [12] = target: Glc(a1-4)Glc(a1-4)Glc(a1-4)Glc
# Outline: as §1
# [13] = target: Glc(a1-6)Glc(a1-6)Glc
# Outline: as §1
# [14] = target: Glc(a1-6)Glc(a1-6)Glc(a1-6)Glc
# Outline: as §1
# [15] = target: Glc(b1-4)Glc
# Outline: as §1
# [16] = target: Glc(b1-6)Glc
# Outline: as §1
# [17] = target: GlcA(b1-3)Gal
# Outline: as §1
# [18] = target: GlcA(b1-3)GlcNAc
# Outline: as §1
# [19] = target: GlcA(b1-6)Gal
# Outline: as §1
# [20] = target: GlcA3S(b1-3)Gal(b1-4)GlcNAc(b1-2)Man
# Outline: as §1
# [21] = target: GlcA3S(b1-3)Gal(b1-4)GlcNAc(b1-3)Gal(b1-4)Glc
# Outline: as §1
# [22] = target: GlcNAc(a1-3)Gal(b1-4)GlcNAc
# Outline: as §1
# [23] = target: GlcNAc(a1-4)Gal(b1-3)GlcNAc
# Outline: as §1
# [24] = target: GlcNAc(a1-4)Gal(b1-4)GalNAc
# Outline: as §1
# [25] = target: GlcNAc(a1-4)Gal(b1-4)GlcNAc
# Outline: as §1
# [26] = target: GlcNAc(a1-4)Gal(b1-4)GlcNAc(b1-3)Gal(b1-4)Glc
# Outline: as §1
# [27] = target: GlcNAc(a1-4)Gal(b1-4)GlcNAc(b1-3)Gal(b1-4)GlcNAc
# Outline: as §1
# [28] = target: GlcNAc(a1-4)Gal(b1-4)GlcNAc(b1-3)Gal(b1-4)GlcNAc(b1-3)Gal(b1-4)GlcNAc
# Outline: as §1
# [29] = target: GlcNAc(a1-4)Gal(b1-4)GlcNAc(b1-3)Gal(b1-4)[Fuc(a1-3)]GlcNAc(b1-3)Gal(b1-4)[Fuc(a1-3)]GlcNAc
# Outline: as §1
# [30] = target: GlcNAc(a1-6)Gal(b1-4)GlcNAc
# Outline: as §1
# [31] = target: GlcNAc(b1-2)Gal(b1-3)GalNAc
# Outline: as §1
# [32] = target: GlcNAc(b1-2)Man(a1-3)[GlcNAc(b1-2)Man(a1-6)]Man(b1-4)GlcNAc(b1-4)GlcNAc
# Outline: as §1
# [33] = target: GlcNAc(b1-2)Man(a1-3)[GlcNAc(b1-2)Man(a1-6)]Man(b1-4)GlcNAc(b1-4)[Fuc(a1-6)]GlcNAc
# Outline: as §1
# [34] = target: GlcNAc(b1-2)Man(a1-3)[GlcNAc(b1-4)][GlcNAc(b1-2)Man(a1-6)]Man(b1-4)GlcNAc(b1-4)GlcNAc
# Outline: as §1
# [35] = target: GlcNAc(b1-2)Man(a1-3)[GlcNAc(b1-4)][GlcNAc(b1-2)Man(a1-6)]Man(b1-4)GlcNAc(b1-4)[Fuc(a1-6)]GlcNAc
# Outline: as §1
# [36] = target: GlcNAc(b1-2)[GlcNAc(b1-4)]Man(a1-3)[GlcNAc(b1-2)Man(a1-6)]Man(b1-4)GlcNAc(b1-4)GlcNAc
# Outline: as §1
# [37] = target: GlcNAc(b1-2)[GlcNAc(b1-4)]Man(a1-3)[GlcNAc(b1-4)][GlcNAc(b1-2)Man(a1-6)]Man(b1-4)GlcNAc(b1-4)GlcNAc
# Outline: as §1
binder,measurement,setting,value
B936 (Bifidobacterium sp) (protein) MKNWKKAIALVASAAALVSVAACGPSNAGGSSDSGKKTVGFVAVGPEGGFRTANEKDIQKAFEDAGFDLTYSPTQNNDQQKQIQAFNKFVNDEVDAIILSSTEDSGWDDSLKKAAEAEIPVFTVDRNVDVKDAEAKKAIVAHIGPSNVWCGEQAAEFVNKNFPDGANGFILEGPAGLSVVKDRGTGWGNKVASNVKVLESQSANWSTDEAKTVTAGLLDKYKSDNPQFIFAQNDEMGLGAAQAVDAAGLKGKVKIITIDGTKNALQALVDGDLSYVIEYNPIFGKETAQAVKDYLDGKTVEKDIEIESKTFDAASAKEALDNNTRAY,glycan array binding signal (z-score),[1],-1.38
same,glycan array binding signal (z-score),[2],3.25
same,glycan array binding signal (z-score),[3],0.157
same,glycan array binding signal (z-score),[4],-0.802
same,glycan array binding signal (z-score),[5],-0.914
same,glycan array binding signal (z-score),[6],0.447
same,glycan array binding signal (z-score),[7],-0.472
same,glycan array binding signal (z-score),[8],-0.041
same,glycan array binding signal (z-score),[9],0.039
same,glycan array binding signal (z-score),[10],-0.783
same,glycan array binding signal (z-score),[11],-0.026
same,glycan array binding signal (z-score),[12],-0.12
same,glycan array binding signal (z-score),[13],0.517
same,glycan array binding signal (z-score),[14],0.382
same,glycan array binding signal (z-score),[15],-0.472
same,glycan array binding signal (z-score),[16],0.035
same,glycan array binding signal (z-score),[17],-0.516
same,glycan array binding signal (z-score),[18],-0.008
same,glycan array binding signal (z-score),[19],-0.035
same,glycan array binding signal (z-score),[20],0.095
same,glycan array binding signal (z-score),[21],-0.991
same,glycan array binding signal (z-score),[22],0.799
same,glycan array binding signal (z-score),[23],-0.409
same,glycan array binding signal (z-score),[24],0.209
same,glycan array binding signal (z-score),[25],-0.584
same,glycan array binding signal (z-score),[26],-1.19
same,glycan array binding signal (z-score),[27],-0.227
same,glycan array binding signal (z-score),[28],-0.435
same,glycan array binding signal (z-score),[29],0.428
same,glycan array binding signal (z-score),[30],-0.288
same,glycan array binding signal (z-score),[31],-0.66
same,glycan array binding signal (z-score),[32],-0.225
same,glycan array binding signal (z-score),[33],-0.373
same,glycan array binding signal (z-score),[34],-0.222
same,glycan array binding signal (z-score),[35],0.068
same,glycan array binding signal (z-score),[36],-0.377
same,glycan array binding signal (z-score),[37],0.042

# Some of the entries above, set out differently:
binder | measurement | setting | value
B936 (Bifidobacterium sp) (protein) MKNWKKAIALVASAAALVSVAACGPSNAGGSSDSGKKTVGFVAVGPEGGFRTANEKDIQKAFEDAGFDLTYSPTQNNDQQKQIQAFNKFVNDEVDAIILSSTEDSGWDDSLKKAAEAEIPVFTVDRNVDVKDAEAKKAIVAHIGPSNVWCGEQAAEFVNKNFPDGANGFILEGPAGLSVVKDRGTGWGNKVASNVKVLESQSANWSTDEAKTVTAGLLDKYKSDNPQFIFAQNDEMGLGAAQAVDAAGLKGKVKIITIDGTKNALQALVDGDLSYVIEYNPIFGKETAQAVKDYLDGKTVEKDIEIESKTFDAASAKEALDNNTRAY | glycan array binding signal (z-score) | [13] | 0.517
same | glycan array binding signal (z-score) | [14] | 0.382
